± gives the standard deviation of the averaged measurements. Most entries show no effect beyond the scatter of the controls.
What was measured:
Test in all cases: level (log10 ratio to DMSO vehicle control); higher = higher biomarker level / cell amount than vehicle control
[1] = compound: C=C(C)C(=O)OCCC(F)(F)C(F)(F)C(F)(F)C(F)(F)C(F)(F)C(F)(F)F [6:2 Fluorotelomer methacrylate] (in DMSO); conditions: 2200 nM
Procedure: (§1)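 BioMAP Diversity Plus panel of 12 human primary cell co-culture systems (3C, 4H, LPS, SAg, BT, BF4T, BE3C, CASM3C, HDF3CGF, KF3CT, MyoF, Mphg). Compounds were added 1 h before stimulation and left for 24 h (MyoF 48 h; BT 72 h for soluble read-outs or 6 d for IgG). Biomarkers were read by ELISA, cytotoxicity by SRB, PBMC viability and proliferation by Alamar Blue. Each well value was divided by the mean of 8 DMSO control wells on the same plate and log10 transformed; duplicate blinded samples were tested at 4 concentrations.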

[2] = compound: CNS(=O)(=O)C(F)(F)C(F)(F)C(F)(F)C(F)(F)C(F)(F)C(F)(F)C(F)(F)C(F)(F)F [N-Methylperfluorooctanesulfonamide] (in DMSO); conditions: 2200 nM
Procedure: as §1

[3] = compound: FC(F)(F)C(F)(F)C(F)(F)C(F)(F)CCI [1H,1H,2H,2H-Perfluorohexyl iodide] (in DMSO); conditions: 2200 nM
Procedure: as §1

[4] = compound: FC(F)(F)C(F)(F)CNCC(F)(F)C(F)(F)F [Bis(1H,1H-perfluoropropyl)amine] (in DMSO); conditions: 2200 nM
Procedure: as §1

[5] = compound: FC(F)(F)COC(OCC(F)(F)F)OCC(F)(F)F [tris(Trifluoroethoxy)methane] (in DMSO); conditions: 2200 nM
Procedure: as §1

[6] = compound: O=C(O)C(F)(F)C(F)(F)C(F)(F)C(=O)O [Hexafluoroglutaric acid] (in DMSO)
Procedure: as §1

[7] = compound: O=C(O)C(F)(F)C(F)(F)C(F)(F)C(F)(F)C(F)(F)F [Perfluorohexanoic acid] (in DMSO)
Procedure: as §1

[8] = compound: O=C(O)C(F)(F)C(F)(F)C(F)(F)OC(F)(C(F)(F)F)C(F)(F)F [Perfluoro-4-isopropoxybutanoic acid] (in DMSO); conditions: 2200 nM
Procedure: as §1

[9] = compound: O=C(O)C(F)(OC(F)(F)C(F)(F)C(F)(F)F)C(F)(F)F [Ammonium perfluoro-2-methyl-3-oxahexanoate] (in Water)
Procedure: as §1

[10] = compound: O=C(O)C(F)(OC(F)(F)C(F)(OC(F)(F)C(F)(OC(F)(F)C(F)(F)C(F)(F)F)C(F)(F)F)C(F)(F)F)C(F)(F)F [Perfluoro-(2,5,8-trimethyl-3,6,9-trioxadodecanoic)acid] (in DMSO); conditions: 370 nM
Procedure: as §1

[11] = compound: O=C(O)CCC(F)(F)C(F)(F)C(F)(F)F [3:3 Fluorotelomer carboxylic acid] (in DMSO); conditions: 2200 nM
Procedure: as §1

[12] = compound: O=S(=O)(O)C(F)(F)C(F)(F)C(F)(F)C(F)(F)F [Perfluorobutanesulfonic acid] (in DMSO)
Procedure: as §1

[13] = compound: OCC(F)(F)C(F)(F)C(F)(F)C(F)(F)C(F)(F)C(F)(F)CO [1H,1H,8H,8H-Perfluorooctane-1,8-diol] (in DMSO); conditions: 2200 nM
Procedure: as §1

[14] = compound: OCC(F)(F)C(F)(F)C(F)(F)C(F)(F)C(F)(F)C(F)(F)F [6:1 Fluorotelomer alcohol] (in DMSO); conditions: 2200 nM
Procedure: as §1

[15] = compound: OCC(F)(F)C(F)(F)C(F)(F)C(F)F [1H,1H,5H-Perfluoropentanol] (in DMSO); conditions: 2200 nM
Procedure: as §1

[16] = compound: OCC(F)(F)OC(F)(F)C(F)(F)OC(F)(F)CO [1H,1H,8H,8H-Perfluoro-3,6-dioxaoctane-1,8-diol] (in DMSO); conditions: 2200 nM
Procedure: as §1

[17] = compound: OCCCC(F)(F)C(F)(F)C(F)(F)C(F)(F)C(F)(F)C(F)(F)C(F)(F)C(F)(F)F [3-(Perfluorooctyl)propanol] (in DMSO); conditions: 2200 nM
Procedure: as §1

Test System | level (log10) [1] | level (log10) [2] | level (log10) [3] | level (log10) [4] | level (log10) [5] | level (log10) ([6]; 2200 nM) | level (log10) ([6]; 6700 nM) | level (log10) ([6]; 20000 nM) | level (log10) ([6]; 60000 nM) | level (log10) ([7]; 2200 nM) | level (log10) ([7]; 6700 nM) | level (log10) ([7]; 20000 nM) | level (log10) ([7]; 60000 nM) | level (log10) [8] | level (log10) ([9]; 2200 nM) | level (log10) ([9]; 6700 nM) | level (log10) ([9]; 20000 nM) | level (log10) ([9]; 60000 nM) | level (log10) [10] | level (log10) [11] | level (log10) ([12]; 2200 nM) | level (log10) ([12]; 6700 nM) | level (log10) ([12]; 20000 nM) | level (log10) ([12]; 60000 nM) | level (log10) [13] | level (log10) [14] | level (log10) [15] | level (log10) [16] | level (log10) [17]
BF4T:CD54/ICAM-1 | 0.005 ± 0.011 | 0.0015 ± 0.021 | 0.006 ± 0.0099 | 0.0085 ± 0.011 | 0.0015 ± 0.0021 | -0.005 ± 0.016 | 0.0025 ± 0.005 | -0.01 ± 0.0057 | 0.006 ± 0.011 | -0.003 ± 0.0099 | -0.011 ± 0.0014 | -0.0135 ± 0.0064 | -0.0005 ± 0.0021 | 0.0065 ± 0.016 | -0.006 ± 0.016 | -0.0155 ± 0.012 | -0.0265 ± 0.016 | -0.0075 ± 0.0021 | -0.0025 ± 0.022 | 0.0015 ± 0.011 | 0 ± 0.0099 | -0.027 ± 0.0085 | -0.002 ± 0.0014 | -0.0115 ± 0.019 | -0.0045 ± 0.0064 | 0 ± 0.033 | 0.003 ± 0.0042 | 0.0105 ± 0.0035 | -0.014 ± 0.0042
BF4T:CD90 | -0.007 ± 0.0028 | 0.007 ± 0.018 | -0.0035 ± 0.032 | -0.001 ± 0.025 | 0.008 ± 0.017 | 0.013 ± 0.0085 | 0.0025 ± 0.0092 | 0.009 ± 0.0042 | 0.0175 ± 0.005 | 0.0015 ± 0.0092 | -0.0045 ± 0.011 | -0.0005 ± 0.011 | -0.007 ± 0.011 | 0.001 ± 0.0085 | 0.0075 ± 0.0078 | -0.0065 ± 0.011 | -0.015 ± 0.011 | -0.007 ± 0.024 | 0.0005 ± 0.0021 | 0.011 ± 0.0028 | -0.0025 ± 0.0092 | -0.007 ± 0.0042 | -0.008 ± 0.021 | -0.015 ± 0.011 | -0.019 ± 0.033 | 0.0145 ± 0.016 | -0.016 ± 0.017 | 0.0015 ± 0.015 | -0.012 ± 0.041
BF4T:CD106/VCAM-1 | -0.004 ± 0.014 | 0.0205 ± 0.018 | 0.0265 ± 0.039 | 0.0175 ± 0.064 | 0.0265 ± 0.067 | 0.022 ± 0.033 | -0.0055 ± 0.023 | -0.0095 ± 0.0078 | -0.002 ± 0.017 | -0.014 ± 0.031 | 0.0025 ± 0.042 | -0.0145 ± 0.0078 | -0.017 ± 0.017 | 0.019 ± 0.096 | -0.0555 ± 0.015 | -0.0735 ± 0.039 | -0.018 ± 0.0085 | -0.008 ± 0.0014 | -0.007 ± 0.041 | 0.0245 ± 0.053 | 0.042 ± 0.0085 | -0.0175 ± 0.0078 | -0.0325 ± 0.046 | -0.021 ± 0.0028 | -0.002 ± 0.0057 | -0.066 ± 0.064 | 0.0065 ± 0.044 | 0.0115 ± 0.071 | -0.0015 ± 0.057
BF4T:CXCL8/IL-8 | 0.0195 ± 0.11 | -0.0105 ± 0.044 | 0.029 ± 0.045 | -0.011 ± 0.051 | 0.015 ± 0.057 | 0.042 ± 0.048 | 0.0125 ± 0.039 | 0.009 ± 0.041 | 0.0345 ± 0.0035 | 0.035 ± 0.0014 | -0.0055 ± 0.025 | 0.0155 ± 0.0078 | 0.0415 ± 0.042 | 0.0045 ± 0.049 | -0.005 ± 0.057 | -0.0135 ± 0.036 | 0.0295 ± 0.028 | 0.0255 ± 0.03 | 0.0475 ± 0.056 | -0.0075 ± 0.005 | -0.0245 ± 0.04 | -0.0205 ± 0.0064 | 0.006 ± 0.0057 | 0.0095 ± 0.013 | 0.013 ± 0.018 | 0.033 ± 0.051 | 0.0505 ± 0.037 | 0.0285 ± 0.043 | 0.019 ± 0.035
BF4T:IL-1alpha | -0.0035 ± 0.011 | 0.0115 ± 0.0064 | -0.006 ± 0.016 | 0.011 ± 0.027 | -0.001 ± 0.016 | -0.0145 ± 0.026 | -0.0065 ± 0.015 | -0.0195 ± 0.0035 | -0.0045 ± 0.033 | 0.003 ± 0.025 | -0.001 ± 0.0042 | -0.0035 ± 0.012 | 0.007 ± 0.0042 | -0.001 ± 0.0057 | 0.021 ± 0.0042 | 0.018 ± 0.03 | 0.0055 ± 0.036 | -0.0085 ± 0.021 | 0.008 ± 0.0028 | -0.0035 ± 0.019 | 0.03 ± 0.03 | 0.0135 ± 0.00071 | 0.0135 ± 0.016 | 0.011 ± 0.016 | 0.012 ± 0.013 | -0.047 ± 0.062 | -0.007 ± 0.016 | 0.0155 ± 0.021 | 0.006 ± 0.031
BF4T:Keratin 8/18 | -0.0105 ± 0.0092 | -0.0165 ± 0.015 | -0.003 ± 0.021 | 0.028 ± 0.024 | 0.02 ± 0.04 | 0.0035 ± 0.06 | -0.006 ± 0.013 | -0.0145 ± 0.015 | 0.0005 ± 0.00071 | 0.012 ± 0.0085 | 0.017 ± 0.028 | 0.0165 ± 0.015 | -0.006 ± 0.037 | 0.0055 ± 0.015 | -0.006 ± 0.037 | -0.0205 ± 0.0078 | -0.008 ± 0.035 | -0.022 ± 0.014 | 0.024 ± 0.0042 | 0.009 ± 0.017 | -0.0225 ± 0.032 | -0.0245 ± 0.028 | -0.0145 ± 0.011 | -0.0045 ± 0.015 | -0.0125 ± 0.035 | 0.0175 ± 0.016 | -0.0225 ± 0.015 | 0.013 ± 0.0042 | 0.0025 ± 0.03
BF4T:MMP-1 | 0.014 ± 0.016 | 0.004 ± 0.021 | 0.0165 ± 0.0021 | 0.0105 ± 0.021 | 0.0095 ± 0.0092 | 0.008 ± 0.02 | 0.0035 ± 0.013 | 0.0215 ± 0.012 | 0.018 ± 0.0099 | 0.015 ± 0.0028 | 0.0005 ± 0.015 | -0.009 ± 0.0071 | -0.0005 ± 0.0078 | 0.0015 ± 0.0092 | 0.042 ± 0.037 | 0.031 ± 0.02 | 0.0105 ± 0.023 | 0.029 ± 0.011 | 0.0065 ± 0.0078 | -0.0005 ± 0.013 | 0.001 ± 0.0071 | 0.0035 ± 0.0064 | -0.009 ± 0.013 | -0.0045 ± 0.00071 | 0.0115 ± 0.015 | 0.004 ± 0.017 | 0.0105 ± 0.015 | 0.0195 ± 0.005 | 0.0125 ± 0.023
BF4T:MMP-3 | 0.0205 ± 0.00071 | 0.0235 ± 0.00071 | 0.0385 ± 0.0035 | 0.0025 ± 0.04 | 0.02 ± 0.048 | 0.0305 ± 0.084 | -0.0045 ± 0.0092 | -0.0125 ± 0.035 | 0.0175 ± 0.0021 | -0.0085 ± 0.0021 | 0.003 ± 0.024 | -0.0095 ± 0.00071 | 0.0295 ± 0.043 | 0.0215 ± 0.021 | 0.005 ± 0.0028 | 0.0335 ± 0.047 | 0.018 ± 0.0057 | 0.048 ± 0.014 | 0.0055 ± 0.039 | 0.0185 ± 0.037 | 0.0335 ± 0.013 | 0.014 ± 0.0014 | 0.001 | 0.042 ± 0.033 | 0.007 ± 0.0099 | -0.0055 ± 0.04 | 0.005 ± 0.014 | 0.0075 ± 0.056 | 0.018 ± 0.031
